Data reported in article PMC9410257.
Results are given in words; binding and its absence hold for the method and conditions named. Binding seen in cells or lysates may run through a third protein. Some results given as binding are weak or reduced against the parent protein; the word gives no strength.

The chains behind the UniProt entries cited, without tags or fusion partners.
UniProt Q9WTL8: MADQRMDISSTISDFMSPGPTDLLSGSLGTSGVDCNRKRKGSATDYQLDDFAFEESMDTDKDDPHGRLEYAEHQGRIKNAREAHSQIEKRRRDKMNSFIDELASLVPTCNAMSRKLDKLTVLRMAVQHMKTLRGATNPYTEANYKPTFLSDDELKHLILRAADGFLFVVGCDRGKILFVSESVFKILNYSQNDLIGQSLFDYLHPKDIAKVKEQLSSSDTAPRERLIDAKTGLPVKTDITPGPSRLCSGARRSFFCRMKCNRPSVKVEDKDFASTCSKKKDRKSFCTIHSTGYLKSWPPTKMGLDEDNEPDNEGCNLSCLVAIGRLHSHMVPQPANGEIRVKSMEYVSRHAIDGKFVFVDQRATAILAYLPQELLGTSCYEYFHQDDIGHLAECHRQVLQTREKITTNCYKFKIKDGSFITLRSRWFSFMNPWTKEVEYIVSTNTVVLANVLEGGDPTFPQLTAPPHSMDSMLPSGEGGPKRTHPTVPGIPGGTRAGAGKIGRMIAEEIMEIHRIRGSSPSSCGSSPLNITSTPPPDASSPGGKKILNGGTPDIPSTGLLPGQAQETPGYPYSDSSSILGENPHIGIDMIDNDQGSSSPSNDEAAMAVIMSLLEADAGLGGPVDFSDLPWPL

Molecular target: brain and muscle ARNT-like 1 (Bmal1) (mouse (endogenous in gastrocnemius)) (UniProt Q9WTL8)
Assay: co-IP; total protein of gastrocnemius of WT and Chrono TG mice; precleared with protein A/G agarose; 3 ug anti-Bmal1 in lysate with 1 mg total protein, 4 °C overnight; protein A/G agarose 4 h; washed four times with cold TNE buffer; Western blot for Chrono

binding: binds
B1: ChIP-derived repressor of network oscillator (Chrono) (protein, UniProt Q3TQ03 1-375)
chain: MDSPSSVSSYSSSSLSPSFSTSSVNSDFSFPSDNEREGKGTHELRPDTVGQRGGSRPSPGPIRCRHRPRVSSNQHTAPHLEQQGSEVKRSRDGEQETSLNTQGCTTEGDLLFAQKCKELQGFIRPLTDLLNGLKMGRFDRGLSSFQQSVAMDRIQRIVGVLQKPQMGERYLGTLLQVEGMLKTWFPHIAAQKSSSGGSRHQISKHFPSHHGDPGAASPAPLLEKMGQTQLGHLVLKPKQPWHLTGWPAMNLTWIHSTPICNPPLSSQGSASGHSPIGTGASIGVILVLQKGGQPFTHSAPGTPVPPTPLSPVVPGDLKKLPGEEPRCHSLPVTLPSDWSCILCPPVLPTTDREMTKGHPEPQMTSHPPVAPDPQP
